According to article doi:10.1101/2025.09.02.673855, “Bacteriophage T4 gene 32 protein: Insights into its Interaction with ssDNA, binding cooperativity, and conformational change” (bioRxiv, 2025):
Results are given in words; binding and its absence hold for the method and conditions named. Some binding calls cover weakened binding; strength is not graded here.

What was measured:
[1] = molecular target: T1, gp32 core domain (*III), residues 22-253 (bacteriophage T4) (UniProt P03695); experiment: other fluorescence titration; *III, 1-227 or a 1:1 mixture of both added to the 12-residue oligonucleotide d(εA)11T, increase in oligonucleotide fluorescence; 0.01 M NaCl, 0.02 M HEPES pH 7.68, 1x10^-4 M EDTA/Na+; the two proteins meet on the oligonucleotide; both purified
T1 sequence: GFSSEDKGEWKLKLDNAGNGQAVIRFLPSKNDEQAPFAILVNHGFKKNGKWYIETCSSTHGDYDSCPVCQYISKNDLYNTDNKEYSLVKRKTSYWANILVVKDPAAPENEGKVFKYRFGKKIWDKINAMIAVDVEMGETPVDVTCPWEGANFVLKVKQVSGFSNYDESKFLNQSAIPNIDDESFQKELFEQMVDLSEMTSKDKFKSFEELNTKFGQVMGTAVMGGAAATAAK

[2] = molecular target: T1, gp32 core domain (*III), residues 22-253 (bacteriophage T4); experiment: other fluorescence titration; as the titration of d(εA)11T with the 1:1 mixture of *III and 1-227, at 0.05 M NaCl; data not shown; both purified

- binding [1]: binds
- binding [2]: binds
Substance: gp32 1-227 truncate (from UniProt P03695 1-227) (domain or fragment)
